Results as given in PubChem BioAssay AID493014 (National Center for Advancing Translational Sciences (NCATS), 2011).
Hit rate of the full screen: of about 340,000 compounds, about 170 (0.05%) were called active. The shares of active, inactive and inconclusive entries below differ from those in the screen. Calls follow the shape of the dose curve; as a rule, active = well fitted inhibition curve with a large enough effect in the signal ratio, with a control signal flat (not every such curve was filed as active); inconclusive = small, poorly fitted or top-dose-only effect, or effect the other way, or a change in a side signal; inactive = flat fitted curve, though single readings scatter; the % refers to the signal ratio. Where the call is inconclusive, the potency comes from a doubtful curve fit.
Potency is read from the fitted curve at half-maximal effect.

Assay: qHTS Assay to Find Inhibitors of Chronic Active B-Cell Receptor Signaling;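 as to activity change, negative = inhibition: plate controls were basal doxycycline-induced cells for no effect and cells given 10 µM MG132 for full effect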
Settings: ABC-DLBCL IkBa-CBG/CBR reporter, luminescence ratio (green luciferase fused to IkBa over red control in TMD8 lymphoma cells), 4 h; activity change, negative = inhibition: at 46.1 µM (top of the series) unless noted
Outline: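 Compounds up to 46 uM were incubated four hours with TMD8 cells whose green CBG68 luciferase is fused to IkappaBalpha; red CBR luminescence normalised the signal, and concentration-effect curves were fitted to fusion, red and ratio data.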
In the case of `O=C(N/N=C/c1ccc(O)cc1)c1cncc(Br)c1`, the activity change, negative = inhibition is reported as inconclusive: -8.57%.
In the case of `O=C(NNC(=O)c1cc2ccccc2o1)c1ccc(Cl)cc1`, the Potency is reported as inconclusive: 10 µM [falling, partial curve].
With `CCOc1ccc2[nH]c(=O)c(CN(Cc3ccco3)C(CC)c3nnnn3Cc3ccccc3)cc2c1` (configuration not stated) the activity change, negative = inhibition was inconclusive: -13.2%.
In the case of `CN(c1ccc(C(=O)NCCSCc2ccc(Cl)cc2)cc1)S(=O)(=O)c1ccccc1`, the “activity change, negative = inhibition” value is reported as inactive: 7.54%.
In the case of `COC(=O)c1ccc(NC(=O)N2CCCC(C(=O)c3ccccc3OC)C2)cc1` (configuration not stated), the activity change, negative = inhibition is reported as inconclusive: 350%.
With `COc1ccc(Nc2nc(N)nc(CN3CCOCC3)n2)cc1` the “activity change, negative = inhibition” value was inactive: -0.641%.
In the case of `CCCCc1cc(=O)oc2cc(O)ccc12`, the “activity change, negative = inhibition” value is reported as inactive: -14%.
In the case of `CN1CCN(NC(=O)c2cn(-c3ccccc3)nc2-c2cccc(Br)c2)CC1`, the activity change, negative = inhibition is reported as inconclusive: -10.4%.
In the case of `O=C(COC(=O)Cc1ccc(Cl)cc1Cl)Nc1ccccc1OC(F)F`, the “activity change, negative = inhibition” value is reported as inactive: -0.188%.
In the case of `c1ccc(CSc2nnc(-c3cccs3)n2Cc2ccco2)cc1`, the activity change, negative = inhibition is reported as inconclusive: 21.6%.
For `COc1ccc(/C=C(\C#N)C(=O)OCCNC(=O)c2ccncc2)cc1`, the activity change, negative = inhibition was inconclusive: 3.7%.
With `Cc1ccc(NC(=O)COC(=O)C2CC2C)c(S(=O)(=O)N2CCCCC2)c1` (configuration not stated) the activity change, negative = inhibition was inconclusive: -5.69%.
In the case of `CC1Cc2ccccc2N1S(=O)(=O)c1cccc(C(=O)OCC(=O)NC2CCS(=O)(=O)C2)c1` (configuration not stated), the Potency is reported as inconclusive: 2.91 µM [rising, partial curve, poor fit].
For `COc1ccc(C2C(C#N)=C(N)N(c3ncn[nH]3)C3=C2C(=O)CCC3)cc1` (configuration not stated), the activity change, negative = inhibition was inconclusive: 7.95%.
For `Cc1ccc(Nc2cc(C)nc3nnnn23)cc1`, the “activity change, negative = inhibition” value was inactive: -14%.
With `CCOc1ccc(NC(=O)Nc2ccccc2C(N)=O)cc1` the Potency was inconclusive: 10 µM [falling, partial curve].
With `Cc1c(Cl)cccc1NC(=O)CN1CCN(CCN=CC2=C(O)CC(c3ccccc3)CC2=O)CC1` (configuration not stated) the activity change, negative = inhibition was inconclusive: -12.2%.
With `Cc1oc2c(cc(NS(=O)(=O)c3ccc(Cl)cc3)c3ccccc32)c1C(=O)O` the “activity change, negative = inhibition” value was inactive: 12.4%.
For `Cc1ccc(OCC(=O)N/N=C/C=C/c2ccco2)c(Br)c1`, the activity change, negative = inhibition was inconclusive: -10.3%.
With `Nc1ccc(C(=O)N2N=C(c3ccccc3)CC2(O)C(F)(F)F)cc1` (configuration not stated) the activity change, negative = inhibition was inconclusive: -15%.
In the case of `CC(=O)c1cccc(NC(=O)CNC(=O)c2cc3ccccc3o2)c1`, the activity change, negative = inhibition is reported as inconclusive: 9.06%.
With `CCC(=O)c1ccc(N2CCN(C(=O)c3ccccc3F)CC2)c(F)c1` the “activity change, negative = inhibition” value was inactive: 5.82%.
In the case of `O=C(CN1c2ccccc2Sc2ccccc21)NNC(=O)Nc1ccc(Cl)cc1`, the activity change, negative = inhibition is reported as inconclusive: -10.2%.
In the case of `CCN(CC(=O)Nc1c(F)cccc1F)C(=O)C1=COCCO1`, the activity change, negative = inhibition is reported as inconclusive: 18%.
For `Cn1c(/N=C/c2ccc3c(c2)OCO3)nc2ccccc21`, the activity change, negative = inhibition was inconclusive: 2.61%.
With `CC1CCCC(NC(=O)COC(=O)Cc2ccc(Br)cc2)C1C` (configuration not stated) the activity change, negative = inhibition was inconclusive: -1.4%.
For `Oc1ccc(-c2cnns2)c(O)c1`, the Potency was inconclusive: 32.6 µM [falling, partial curve, poor fit].
With `CCCCN(CC)S(=O)(=O)N1CCC(C(=O)NCc2ccc(F)cc2)CC1` the activity change, negative = inhibition was inconclusive: -11.3%.
In the case of `COC(=O)c1nnn(CC(=O)NC(=O)Nc2cccc(C)c2C)c1C(=O)OC`, the “activity change, negative = inhibition” value is reported as inactive: -1.04%.
In the case of `Cc1cc(C)c(NC(=O)CSc2nnc(CNC(=O)c3c(F)cccc3Cl)o2)c(C)c1`, the activity change, negative = inhibition is reported as inconclusive: -1.67%.
In the case of `CCn1c(SCC(=O)Nc2ccc(Cl)cc2)nc2nc3c(cc2c1=O)CCCC3`, the “activity change, negative = inhibition” value is reported as inactive: -3.96%.
For `O=C1CCc2cc(NS(=O)(=O)c3ccc(F)cc3)cc3c2N1CC3`, the activity change, negative = inhibition was inconclusive: -16.6%.
In the case of `CCc1nc2ccc(C(=O)N3CCN(c4ccccc4)CC3)cc2nc1CC`, the activity change, negative = inhibition is reported as inconclusive: 22.9%.
For `C=CCn1c(=NC(=O)c2sc3ccccc3c2Cl)sc2cc(S(N)(=O)=O)ccc21`, the activity change, negative = inhibition was inconclusive: 2.84%.
For `CCOC(=O)c1[nH]c(C)c(C(=O)Nc2ccccc2F)c1C`, the activity change, negative = inhibition was inconclusive: 8.33%.
In the case of `COc1ccc(/C=C(/C(=O)c2ccc(Cl)cc2Cl)n2cncn2)cc1`, the Potency is reported as inconclusive: 35.5 µM [falling, single point].
For `CCCCOc1ccccc1C1C(C(=O)OC)=CN(CC)C=C1C(=O)OC`, the activity change, negative = inhibition was inconclusive: -0.763%.
For `CN1C(=O)C(=O)N(CC(=O)N2CCc3ccccc32)C1=O`, the activity change, negative = inhibition was inconclusive: 12.8%.
With `CCCCNC(=O)c1onc(CSc2ccc(F)c(F)c2)c1C(=O)O` the activity change, negative = inhibition was inconclusive: -3.63%.
With `CC(C)c1ccc(/C=C/c2ccc(=O)n(C)n2)cc1` the Potency was inconclusive: 22.4 µM [falling, single point].
With `NC(=O)c1nsc(C(=O)N(CC(=O)NC2CCCCC2)c2cccc(F)c2)c1N` the Potency was inconclusive: 10 µM [falling, partial curve].
For `CCCOc1c(Br)cc(C(=O)OCC(=O)NC(=O)c2cccn2C)cc1OC`, the “activity change, negative = inhibition” value was inactive: -6.09%.
In the case of `COc1ccc(CSc2nnc(C)n2N)cc1`, the “activity change, negative = inhibition” value is reported as inactive: -0.929%.
In the case of `CCOC(=O)c1cccc(NC(=O)CCc2c(C)nc3ncnn3c2C)c1`, the activity change, negative = inhibition is reported as inconclusive: -23.5%.
With `COc1ccc(/C=N/n2c(N)nc(-c3ccccc3)c2-c2ccccc2)cc1` the Potency was inconclusive: 15.8 µM [falling, partial curve].
For `O=C(Nc1ccc(Oc2ccccc2)cc1)C1CC1`, the activity change, negative = inhibition was inconclusive: -2.16%.
With `O=C(NCc1ccc(F)cc1)c1cccc2c1C(=O)c1ccc(N3CCOCC3)cc1S2(=O)=O` the Potency was inconclusive: 20.6 µM [falling, partial curve, poor fit].
In the case of `Oc1ccc(/C=N/NC(=S)Nc2cccnc2)c(O)c1`, the Potency is reported as inconclusive: 1.3 µM [falling, partial curve].
In the case of `CCOc1ccccc1NC(=O)C1CCCN(S(=O)(=O)c2c(C)[nH]c(=O)[nH]c2=O)C1` (configuration not stated), the activity change, negative = inhibition is reported as inconclusive: -6.21%.
For `COc1ccc(CCNC(=O)c2cc(C)oc2C)cc1`, the Potency was inconclusive: 12.6 µM [falling, partial curve, poor fit].
In the case of `CC(=O)N1N=C(c2ccc3ccccc3c2)OC1(C)C`, the activity change, negative = inhibition is reported as inconclusive: -2.08%.
For `O=[N+]([O-])c1cccc(-c2noc(COc3ccccc3)n2)c1`, the activity change, negative = inhibition was inconclusive: 0.0469%.
With `Cc1cccnc1NC(=O)c1ccc2c(c1)OCO2` the Potency was inconclusive: 20.6 µM [falling, partial curve, poor fit].
For `O=C(COc1ccc(/C=C2/NC(=O)NC2=O)cc1)Nc1ccc(F)cc1`, the activity change, negative = inhibition was inconclusive: 14.8%.
In the case of `O=C(NCCN1CCOCC1)c1ccc2ccccc2n1`, the activity change, negative = inhibition is reported as inconclusive: 7.22%.
With `CC(=O)NC1C(=O)N(CCN2CCOCC2)c2ccc(F)cc21` (configuration not stated) the “activity change, negative = inhibition” value was inactive: -0.796%.
With `N#Cc1c(NC(=O)C2CC(Cl)=CCC2C(=O)O)sc2c1CCCCC2` (configuration not stated) the activity change, negative = inhibition was inconclusive: 1.34%.
For `Cc1ccc(-n2c(=O)c3c(C)c(C(=O)N(C)C)sc3n(CC(=O)C(C)(C)C)c2=O)cc1C`, the “activity change, negative = inhibition” value was inactive: 8.01%.
For `CCNC(=S)NNC(=O)CSc1nc2ccccc2[nH]1`, the “activity change, negative = inhibition” value was inactive: -0.597%.
With `COc1cc(OC)c2ccc(=O)oc2c1C(CC(=O)N1CCCC1)c1ccc(N(C)C)cc1` (configuration not stated) the activity change, negative = inhibition was inconclusive: 3.26%.
In the case of `O=c1cc(-c2ccccc2)n2c(SCc3ccccc3)nnc2[nH]1`, the activity change, negative = inhibition is reported as inconclusive: 8.42%.
With `Cc1cccc(C(=O)N[C@H](C(=O)Nc2ccc(C)c(S(=O)(=O)N3CCOCC3)c2)C(C)C)c1` the “activity change, negative = inhibition” value was inactive: -18.4%.
For `CCC(CC)NC(=O)c1cccc(Br)c1`, the activity change, negative = inhibition was inconclusive: 2.32%.
In the case of `Cc1ccc(NC(=O)CSc2nc3ccccc3c(=O)n2CCCN2CCCCC2)cc1C`, the Potency is reported as inconclusive: 22.4 µM [falling, partial curve].
With `COc1ccc(N2CCN(C(=O)CCS(=O)(=O)c3ccc4c(c3)NC(=O)C(C)S4)CC2)cc1` (configuration not stated) the “activity change, negative = inhibition” value was inactive: 0.456%.
With `COc1ccc(NC(=O)c2ccc(NC(=O)C(C)C)cc2)c([N+](=O)[O-])c1` the “activity change, negative = inhibition” value was inactive: 1.62%.
With `Clc1ccc(/C(Cc2nc3ccccc3[nH]2)=N\Nc2ccccc2)cc1` the activity change, negative = inhibition was inconclusive: 14.6%.
For `COc1cc(Cl)c(C)cc1NC(=O)CSc1nnc(-c2ccco2)n1CC(C)C`, the activity change, negative = inhibition was inconclusive: 0.724%.
In the case of `C=CCn1c(Oc2ccccc2)nc2c1c(=O)n(C)c(=O)n2C`, the activity change, negative = inhibition is reported as inconclusive: 8.13%.
For `C=CCN1C(=O)N/C(=C/c2ccccc2OCC(=O)Nc2ccc(F)cc2)C1=O`, the “activity change, negative = inhibition” value was inactive: -4.4%.
For `Cc1cc(C)nc(N/N=C/c2sccc2C)n1`, the Potency was inconclusive: 17.8 µM [falling, single point].
For `O=C(COc1ccccc1F)NNC(=O)c1ccc(N2CCCCC2)c([N+](=O)[O-])c1`, the activity change, negative = inhibition was inconclusive: 8.42%.
For `CC(=O)c1ccc(OCC(O)COc2ccc(C(C)=O)cc2)cc1`, the “activity change, negative = inhibition” value was inactive: -2.22%.
With `CCOC(=S)SCC(=O)N1CCc2cc(OC)ccc2C1C1C(=O)CCCC1=O` (configuration not stated) the Potency was inconclusive: 20.6 µM [cytotoxic, partial curve].
For `CCOC(=O)N1CCN(C(=O)c2ccc3c(=O)n(CCC4=CCCCC4)c(=O)[nH]c3c2)CC1`, the activity change, negative = inhibition was inconclusive: 4.26%.
For `O=C(NC(=S)Nc1cccc2cc(O)ccc12)c1ccccc1Br`, the Potency was inconclusive: 0.631 µM [falling, full curve].
With `CSc1nc2ccc(NC(=O)c3nn(C(C)C)c(=O)c4ccccc34)cc2s1` the activity change, negative = inhibition was inconclusive: 5.32%.
With `COc1ccccc1N(C)S(=O)(=O)c1ccc(C(=O)Nc2nccs2)cc1` the activity change, negative = inhibition was inconclusive: 5.56%.
For `Cc1ccc(-n2cc(C(=O)c3ccccc3O)cn2)cc1`, the Potency was inconclusive: 35.5 µM [rising, single point].
In the case of `Cc1ccccc1N1C(=O)C2ON(c3ccccc3)C(c3ccco3)C2C1=O` (configuration not stated), the Potency is reported as inconclusive: 11.2 µM [falling, partial curve, poor fit].
With `COc1cccc(OC)c1C(=O)NC(=S)Nc1ccc2c(c1)C(=O)N(C)C2=O` the activity change, negative = inhibition was inconclusive: 1.77%.
With `COc1ccc(Cl)cc1NC(=O)CN(C)C(=O)CCCc1c[nH]c2ccccc12` the Potency was inconclusive: 35.5 µM [falling, partial curve, poor fit].
